In PubChem BioAssay AID1117319 (Southern Research Institute, 2015):
Out of some 260,000 compounds screened, about 1,500 (0.58%) were called active. This list was built around the results that the source calls inconclusive (neither active nor inactive); the mix of calls is not that of the screen.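 How the source made its calls: active means inhibition above a set limit at one or more doses, reproduced on every date tested; inconclusive means results disagree between test dates, or hit never tested in dose response; inactive means the rest.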

By UniProt entry, the sequences of proteins in these tests, tags left out. Where a name states a change or a piece, a line headed by the entry shows the natural chain unless it says otherwise.
UniProt P69720: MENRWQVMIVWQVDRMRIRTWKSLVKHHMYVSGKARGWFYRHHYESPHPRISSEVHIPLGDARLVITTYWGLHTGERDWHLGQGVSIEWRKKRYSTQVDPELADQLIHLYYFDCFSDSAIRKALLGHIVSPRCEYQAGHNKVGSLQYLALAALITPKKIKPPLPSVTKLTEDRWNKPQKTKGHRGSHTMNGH
UniProt P69721: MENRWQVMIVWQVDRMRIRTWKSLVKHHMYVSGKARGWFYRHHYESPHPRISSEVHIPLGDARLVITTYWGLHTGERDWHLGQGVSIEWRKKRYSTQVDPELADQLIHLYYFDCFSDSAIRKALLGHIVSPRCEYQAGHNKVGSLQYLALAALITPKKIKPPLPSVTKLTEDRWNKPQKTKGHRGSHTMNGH
UniProt P69722: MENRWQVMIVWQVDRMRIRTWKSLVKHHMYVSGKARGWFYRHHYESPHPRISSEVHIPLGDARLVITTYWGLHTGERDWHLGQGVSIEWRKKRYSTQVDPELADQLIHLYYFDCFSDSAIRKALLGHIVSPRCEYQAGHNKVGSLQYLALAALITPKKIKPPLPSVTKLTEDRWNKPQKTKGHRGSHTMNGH
UniProt P69723: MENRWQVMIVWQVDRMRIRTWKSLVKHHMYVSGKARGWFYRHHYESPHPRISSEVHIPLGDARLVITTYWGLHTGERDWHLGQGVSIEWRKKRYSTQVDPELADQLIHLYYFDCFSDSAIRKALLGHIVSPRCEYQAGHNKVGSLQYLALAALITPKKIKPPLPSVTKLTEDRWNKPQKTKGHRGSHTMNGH
UniProt Q9HC16: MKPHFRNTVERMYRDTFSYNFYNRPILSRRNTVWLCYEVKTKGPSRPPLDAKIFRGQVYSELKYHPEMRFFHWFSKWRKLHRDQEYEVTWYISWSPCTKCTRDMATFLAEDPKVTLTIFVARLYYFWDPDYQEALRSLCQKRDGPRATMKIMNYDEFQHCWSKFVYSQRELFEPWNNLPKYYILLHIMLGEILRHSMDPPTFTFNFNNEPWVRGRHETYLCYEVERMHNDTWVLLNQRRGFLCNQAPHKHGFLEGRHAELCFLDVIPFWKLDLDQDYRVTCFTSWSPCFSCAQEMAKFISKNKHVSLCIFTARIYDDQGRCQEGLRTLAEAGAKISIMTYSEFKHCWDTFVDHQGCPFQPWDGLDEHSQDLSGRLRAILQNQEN

These molecules were tested against Virion infectivity factor (Human immunodeficiency virus type 1 group M subtype B (isolate BH10)) + Virion infectivity factor (Human immunodeficiency virus type 1 group M subtype B (isolate BRU/LAI)) + Virion infectivity factor (Human immunodeficiency virus type 1 group M subtype B (isolate PCV12)) + Virion infectivity factor (Human immunodeficiency virus type 1 group M subtype B (isolate HXB2)) + DNA dC->dU-editing enzyme APOBEC-3G (Homo sapiens) (UniProt P69720+P69721+P69722+P69723+Q9HC16) (assay: inhibitors of Vif binding to APOBEC3G peptide, primary screen, biochemical, TR-FRET, GST-Vif 1-94, biotin-A3G peptide, dose response retest (AID 1117319;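 further: Vif residues 1-94 fused to GST binding biotinylated APOBEC3G peptide 110-148; 0% = full assay without inhibitor and 100% = GST in place of GST-Vif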)). Settings: hits give high values.

| Structure (SMILES) | inhibition |
| --- | --- |
| CCCCOc1ccc(C(=O)NCC(=O)OCCCOC(=O)CNC(=O)c2ccc(OCCCC)cc2)cc1 | inactive: -9.89% |
| COc1ccc(N2CCN(CC(O)COCCOc3ccc(Br)cc3)CC2)cc1 (configuration not stated) | inconclusive: 55% |
| O=c1[nH]n2c(=O)c3c([nH]c2c1N=Nc1ccccc1)CCC3 | inconclusive: 53.5% |
| Cc1ccc2c(c1)cc(CN(Cc1cccnc1)C(=O)c1ccccc1)c1nnnn12 | inconclusive: 41% |
| CN(C)c1ccc2c(O)cc(=O)n(C)c2c1 | inconclusive: 54.3% |
| CC(C)CN1C(=O)/C(=C/c2ccco2)NC1=S | inconclusive: 46.9% |
| CCOC(=O)c1ccc(N/C=C/C(=O)c2ccco2)cc1 | inconclusive: 42.5% |
| CCn1c(C)nc2cc(C(=O)NNC(=S)Nc3ccc(Cl)cc3)ccc21 | inconclusive: 41.4% |
| COc1cc2c(cc1OC)CN(C(=O)c1cccc(S(=O)(=O)N3CCc4ccccc43)c1)CC2 | inactive: 8.84% |
| CN(C)CCN=Cc1c(O)n(Cc2ccc3c(c2)OCO3)c(=O)c2ccccc12 | inactive: -11.8% |
| CC1=CC(C)(C)Nc2ccc(OS(=O)(=O)c3ccc(C)cc3)cc21 | inconclusive: 43.3% |
| CCCCN(CC)CCNC(=O)c1nn(-c2ccc(OC)cc2)c(=O)c2c1c1ccccc1n2C | inactive: 6.38% |
| O=C1SC(c2ccccc2)=N/C1=C/c1ccco1 | inconclusive: 49.5% |
| FC(F)(F)c1ccccc1-n1c(CN2CCCCC2)n[nH]c1=S | inconclusive: 33.1% |
| CCOC(=O)Cc1csc(NC(=O)/C=C/c2ccc(Br)o2)n1 | inconclusive: 33.3% |
| Cc1cc(N2C(=O)C3C4c5ccccc5C(c5ccccc54)C3C2=O)no1 (configuration not stated) | inconclusive: 36.2% |
| COc1ccccc1CN(Cc1cc2cc3c(cc2[nH]c1=O)OCCO3)Cc1nnnn1Cc1ccco1 | inconclusive: 49.1% |
| CCOc1ccc(C(C)C)cc1S(=O)(=O)Nc1ccc(Cl)cn1 | inconclusive: 46.9% |
| O/N=C1\CCSc2ccc(F)cc21 | inconclusive: 34.2% |
| O=C(CCC1N=C2c3ccccc3N=C(SCc3cccc(Cl)c3)N2C1=O)NCc1ccco1 (configuration not stated) | inconclusive: 36.2% |
| Cc1ccc(S(=O)(=O)N2CCC(=O)N(CCOCc3cccc(Cl)c3)CC2)cc1 | inconclusive: 43.5% |
| CCNC(=O)n1cc(-n2cncn2)c(-c2ccccc2)n1 | inconclusive: 34.6% |

Compounds shown so far with nitrogen in an aromatic ring (12):

| Structure (SMILES) | inhibition |
| --- | --- |
| O=c1[nH]n2c(=O)c3c([nH]c2c1N=Nc1ccccc1)CCC3 | inconclusive: 53.5% |
| Cc1ccc2c(c1)cc(CN(Cc1cccnc1)C(=O)c1ccccc1)c1nnnn12 | inconclusive: 41% |
| CN(C)c1ccc2c(O)cc(=O)n(C)c2c1 | inconclusive: 54.3% |
| CCn1c(C)nc2cc(C(=O)NNC(=S)Nc3ccc(Cl)cc3)ccc21 | inconclusive: 41.4% |
| CN(C)CCN=Cc1c(O)n(Cc2ccc3c(c2)OCO3)c(=O)c2ccccc12 | inactive: -11.8% |
| CCCCN(CC)CCNC(=O)c1nn(-c2ccc(OC)cc2)c(=O)c2c1c1ccccc1n2C | inactive: 6.38% |
| FC(F)(F)c1ccccc1-n1c(CN2CCCCC2)n[nH]c1=S | inconclusive: 33.1% |
| CCOC(=O)Cc1csc(NC(=O)/C=C/c2ccc(Br)o2)n1 | inconclusive: 33.3% |
| Cc1cc(N2C(=O)C3C4c5ccccc5C(c5ccccc54)C3C2=O)no1 (configuration not stated) | inconclusive: 36.2% |
| COc1ccccc1CN(Cc1cc2cc3c(cc2[nH]c1=O)OCCO3)Cc1nnnn1Cc1ccco1 | inconclusive: 49.1% |
| CCOc1ccc(C(C)C)cc1S(=O)(=O)Nc1ccc(Cl)cn1 | inconclusive: 46.9% |
| CCNC(=O)n1cc(-n2cncn2)c(-c2ccccc2)n1 | inconclusive: 34.6% |

(further entries)

| Structure (SMILES) | inhibition |
| --- | --- |
| Cc1ccc(S(=O)(=O)/N=C2/NC(=O)/C(=C\c3ccco3)S2)cc1 | inconclusive: 42.7% |
| C/C(=N\OCc1nc2ccccc2c(=O)n1/N=C/c1cc(C)cc([N+](=O)[O-])c1O)c1ccccc1 | inconclusive: 50% |
| CC1=NN(c2ccccc2)C(=O)C1N=Nc1ccc(N)cc1 (configuration not stated) | inconclusive: 35.4% |
| O=C(CC(=O)N/N=C/c1ccccc1O)NCc1cccnc1 | inconclusive: 47.1% |
| CNc1ccccc1-n1ccc(-c2ccccc2)n1 | inconclusive: 40.6% |
| O=C(Nc1ccccc1)Nc1ccccc1C(=O)NCCCN1CCOCC1 | inconclusive: 43.8% |
| CCOC(=O)C1=C(N)n2c(s/c(=C\c3ccncc3)c2=O)=C(C(=O)OCC)C1c1ccncc1 (configuration not stated) | inactive: -12.8% |
| O=C1NCCCC2c3cc(O)c4ccccc4c3OC12N1CCCCC1 (configuration not stated) | inconclusive: 44.6% |
| CN1CCN(C(=O)/C=C/c2ccc([N+](=O)[O-])o2)CC1 | inconclusive: 51% |
| CN(C(=O)COC(=O)c1cncc(Br)c1)C1CCS(=O)(=O)C1 (configuration not stated) | inconclusive: 33.4% |
| CC(=O)N1N=C2c3ccccc3CCC2C1c1cccs1 (configuration not stated) | inconclusive: 51.3% |
| COc1ccc(CCNS(=O)(=O)c2ccc(F)cc2)cc1OC | inconclusive: 39.4% |
| CN1CCN(c2nc(Nc3ccccc3)nc(N)c2[N+](=O)[O-])CC1 | inconclusive: 45.2% |
| Cc1ccccc1CN1C[C@@H]2C[C@@H](c3cn[nH]c3-c3ccc(F)cc3)N3CCC[C@@]23C1=O | inactive: 6.1% |
| O=C(CN1C(=O)S/C(=C/c2ccccn2)C1=O)N1CCOCC1 | inactive: 2.37% |
| COc1ccc(N2CCN(C(c3cc(OC)ccc3OC)c3nnnn3CC3CCCO3)CC2)cc1 (configuration not stated) | inconclusive: 44.2% |
| COc1ccc(-n2c(=S)[nH]c3cc(C(=O)NCCCN4CCCC4=O)ccc3c2=O)c(OC)c1 | inconclusive: 47.5% |
| CCc1sc(NC(=O)COC)nc1-c1ccccc1 | inconclusive: 40.4% |
| Cc1ccc(NC(=O)CN2C(=O)N/C(=C/c3cc(C)n(-c4ccc(C(=O)O)cc4)c3C)C2=O)cc1 | inconclusive: 64.6% |
| Cn1c(=O)n(C)c2cc(NC(=O)COc3ccc(Cl)cc3)ccc21 | inconclusive: 62.9% |
| CCOc1nc(-c2ccccc2O)nc2ccccc12 | inconclusive: 36.2% |
| Cc1cc(C(=O)O)ccc1-c1ccc(/C=C2\NC(=O)N(Cc3ccccc3Cl)C2=O)o1 | inconclusive: 45% |

| Structure (SMILES) | inhibition |
| --- | --- |
| Nc1nc(N)c2c(n1)CN(Cc1ccc(Cl)cc1)C2 | inactive: -2.69% |
| CCOC(=O)N1CCN(C(=O)CN(Cc2ccc(Cl)cc2)S(C)(=O)=O)CC1 | inconclusive: 16.5% |
| COC(=O)c1ccc(NC(=S)Nc2ccc3ccccc3c2)cc1 | inconclusive: 46.4% |
| O=C1CCC/C(=N\NC(=O)c2ccc(CSc3cccc4cccnc34)cc2)C1 | inactive: 5.86% |
| CCN(CC)CCP(=O)(c1ccccc1)c1ccccc1 | inconclusive: 56.8% |
| Cc1ccc(/C=C/C(=O)Nc2cccc3cccnc23)o1 | inconclusive: 49.3% |
| CC1(C)CC(=O)C(C(=O)/C=C/c2ccco2)C(=O)C1 | inconclusive: 48.3% |
| Oc1ccc2ccccc2c1/C=N/n1cnnc1 | inconclusive: 33.2% |
| COc1ccc(CCN2CCCn3c2nc2c3c(=O)n(CC(N)=O)c(=O)n2C)cc1OC | inactive: -0.32% |
| CCOc1ccc2cc(S(=O)(=O)N3CCN(C)CC3)ccc2c1 | inconclusive: 39.3% |
| COc1ccc(C(=O)N/N=C(\C)c2ccc3c(c2)C2C=CCC2C(c2ccccc2)N3)cc1 (configuration not stated) | inconclusive: 38.1% |
| COc1ccc(NC(=O)CSc2ncnc3c2cnn3Cc2ccccc2)cc1OC | inactive: 23.2% |
| Cn1c(=O)c2c(nc(NCc3cccnc3)n2Cc2ccc(Cl)cc2)n(C)c1=O | inconclusive: 37.8% |
| Cc1ccc(C2C(C#N)=C(N)Oc3n[nH]c(-c4cccs4)c32)cc1 (configuration not stated) | inconclusive: 39.6% |
| COc1cccc(-c2ccc(-c3noc(-c4cccs4)n3)c(OC)n2)c1 | inconclusive: 54.9% |
| c1ccc(Oc2cccc(OCCCn3cncn3)c2)cc1 | inconclusive: 33.7% |
| CCC(C)NC(=O)CSc1nnc(-c2cc(OC)c(OC)c(OC)c2)c(-c2cc(OC)c(OC)c(OC)c2)n1 (configuration not stated) | inactive: 2.7% |
| COc1ccc(N2CCN(C(=O)c3cc4c(-c5cccc(OC)c5)nn(C)c4s3)CC2)cc1 | inconclusive: 50.6% |
| O=C(CSc1nc2ccccc2n1CC(=O)N1CCCC1)Nc1nccs1 | inconclusive: 16.9% |
| CCN(CC)S(=O)(=O)c1cccc(C(=O)OCC(=O)c2ccc3c(c2)OCCO3)c1 | inconclusive: 41.4% |
| CC(C)CC1C(C#N)=C(N)Oc2n[nH]c(-c3cccs3)c21 (configuration not stated) | inconclusive: 37.1% |
| N#C/C(=C\c1c(N2CCCCC2)nc2ccccn2c1=O)C(=O)NCc1ccco1 | inconclusive: 36% |

Some values from the results shown.
In inhibition, Oc1ccc2ccccc2c1/C=N/n1cnnc1 is entered as inconclusive: 33.2%
In inhibition, Nc1nc(N)c2c(n1)CN(Cc1ccc(Cl)cc1)C2 is entered as inactive: -2.69%

(further entries)

| Structure (SMILES) | inhibition |
| --- | --- |
| CCOC(=O)CCCOC(=O)c1ccc(S(=O)(=O)N(C)C)cc1 | inconclusive: 54.6% |
| Cc1cn(C(=O)CN2C(=O)c3ccccc3C2=O)c(C)n1 | inconclusive: 50.9% |
| O=C(CNC(=O)c1ccccc1)Nc1ccsc1C(=O)O | inactive: -11.3% |
| Cc1cc(CNC(=O)CC2C(=O)NCCN2Cc2ccc(-c3ccccc3)cc2)nn1C (configuration not stated) | inconclusive: 35.4% |
| Fc1ccc2nc(Nc3nc4cc5c(cc4s3)OCCO5)sc2c1 | inconclusive: 35.2% |
| CCCCNC(=O)c1oc2ccc(S(=O)(=O)N3CCCC3)cc2c1C | inconclusive: 35% |
| Cc1cc(N/C=C2\CCCCC2=O)no1 | inconclusive: 49% |
| COc1ccc(/C=C/C(=O)Nc2ccc(OC)cc2[N+](=O)[O-])cc1 | inconclusive: 42.4% |
| COC(=O)c1ccc(Nc2c([N+](=O)[O-])c(=O)oc3ccccc23)cc1 | inconclusive: 62.9% |
| Cc1onc(-c2ccccc2)c1C(=O)Nc1nc2c(s1)CCCC2 | inconclusive: 48.1% |
| NS(=O)(=O)c1ccc(NC(=O)C2CCCN(S(=O)(=O)c3ccc(F)cc3)C2)cc1 (configuration not stated) | inactive: -11.9% |
| Cc1ccc2oc(=O)c3cnn(CC(=O)N4CCCCC4C)c3c2c1 (configuration not stated) | inconclusive: 44.8% |
| CCCN1C(=O)/C(=C/c2ccc(C)o2)SC1=Nc1ccc(OC)cc1 | inactive: 23.9% |
| Nc1c(S(=O)(=O)c2ccccc2)c2nc3ccccc3nc2n1/N=C/c1ccco1 | inconclusive: 69.2% |
| COC(=O)c1c[nH]n2c(=O)c(C(C)C)c(C)nc12 | inconclusive: 55.1% |
| O=c1ccc2cc3c([nH]c4ccc(Br)cc43)oc-2c1O | inconclusive: 55.2% |
| CCn1c(C)nc2cc(S(=O)(=O)N3CCCCC3)ccc21 | inconclusive: 35.1% |
| O=C1N=C2SCCN2/C1=C\c1ccc(Cl)cc1 | inconclusive: 51.8% |
| O=[N+]([O-])c1ccc(NCCCNS(=O)(=O)c2ccccc2)cc1 | inconclusive: 35.6% |
| Cc1c(NC(=O)COc2ncnc3c(Cl)cc(Cl)cc23)c(=O)n(-c2ccccc2)n1C | inconclusive: 38.8% |
| Cc1ccc(NC2CC(=O)N(c3cccc([N+](=O)[O-])c3)C2=O)cc1 (configuration not stated) | inconclusive: 50.2% |
